For this assay, the target named is N-terminally 3xFLAG-tagged Synechococcus sp. PCC 7002 chlorophyll synthase (ChlG) (Synechococcus sp. PCC 7002). The experiment in a line: co-IP; anti-FLAG-M2 agarose column with membranes solubilised in 2% β-DDM; FLAG-buffer (25 mM sodium phosphate pH 7.4, 10 mM MgCl2, 50 mM NaCl, 10% glycerol), wash with 0.04% β-DDM, elution with 3xFLAG peptide; eluates read by SDS/PAGE and immunoblot; FLAG-6803 also before and after high light stress.

No constants are given. Whether binding was seen depends on the method and setting. Binding seen in cells or lysates may run through a third protein. A result given as binding can be weak or reduced; the word gives no strength.

B1: membrane insertase YidC (Slr1471) (protein, UniProt P74155 1-384)
chain: MDFGIGFISTNIMLPILDFFFGIVHSYGFAIIALTLVIRLGLYPLSAGQIRNMRKMRITQPLMKERQEEIQKRYKDDPAKQQEEMAKVMKEFGNPLAGCLPLLLQMPILFALFATLRGSPFSDINYTVDLQILPQEQVERIVPQTFSTKPQNIYVDEALHYPIAVFLPGGKMLGVGEKTQLEIQSTEGKAFNQVIPEKNSQILTPTYSVTKGEDRISVNPDGTIEALVPGDATVQVTIPGIAARTGFLFIKALGQVGVTGENGEINWDILGMIVFFGFSIYLNQELSGASGGGAPNAQAQQQQTINKITPILFSGMFLFFPLPAGVLMYIVMANVFQTIQTLILMREPLPENLQKLLDEQQKATQGRESLPFEKKSSKKKEKTS
In the case of B1, the binding result is “binds”.

B2: photosystem II assembly factor Ycf39 (Slr0399) (protein, UniProt P74429 1-326)
chain: MRVLVVGGTGTLGRQIVRQAIDQGHTVVCLVRSLRKAAFLKEWGATIVGGNICKPETLSPALENIDAVIDASTARATDSLTIRQVDWEGKLNLIRAVQKAGIKKFVFFSILRAAEYPKVPLMDIKNCTEKFLAQTNLDYTILQLAGFMQGLIGQYAIPILDNQSVWQTGENTPIAYMNTQDVAKFAVRAVELDSVARKTYPVVGSRAWGATEIIQLCERMSGNNARISQVPMAVLRFMRSFTRFFQWTYNASDRLAFSEVLASGKALTADMAPVYEQFGLDPKETTTLESYLQEYFGRIIKKLKELDYEVNPTQTEGKKKKNNFFF
In the case of B2, the binding entry is on record as “binds”.
